Results on 59 compounds are retold here after PubChem BioAssay AID2685 (National Center for Advancing Translational Sciences (NCATS), 2010).

The structures appear in SMILES notation. “And” between values parts separate entries of the source, which are not always exact repeats. Equal values may be shown once. The list shows a part of the results. Further columns of the screen follow, without active or inactive calls. Most of these compounds were active or inconclusive in the main read-out, so they are no random draw. Potencies come from curve fits of mixed quality, noted in brackets.

A short description of this assay: qHTS Assay for Lipid Storage Modulators in Drosophila S3 Cells.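 As to cell number change: cells counted by Cell Tracker Red CMTPX staining in the red channel.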 As to conditions: BODIPY lipid droplet fluorescence, 18-24 h; for cell number change: measured here: cell count max response, cells fed with added oleic acid. Summed up: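 Drosophila S3 cells got compounds at several concentrations plus oleic acid (400 uM solution). Laser-scanning cytometry with 488 nm excitation read lipid droplets at 500-530 nm and cells at 575-640 nm. Percent activity was relative to 20 uM Triacsin C.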
(qHTS replaces the single test concentration by a dilution series.)

[1] abbreviates: measured here: lipid fluorescence (Fed channel) AC50, cells fed with added oleic acid.
[2] abbreviates: measured here: cell number channel AC50, cells fed with added oleic acid.

What is called AC50 is the concentration giving half of the maximal activity seen. A lower AC50 goes with activity at low concentration. With `Cc1cc(C)nc(N2CCCC(C(=O)NCCc3cccc(F)c3)C2)n1` (stereo not given), the cell number change came out at 13.1%. Besides, the AC50 under setting [1] is 2.06 µM [rising, partial curve]. With `Cc1ccc2nc(-c3ccccn3)cc(C(=O)NC3CCN(C)CC3)c2c1`, the AC50 under setting [1] is 1.16 µM [falling, full curve, poor fit]. The same measure, in the same setting: as for `CCOCCCNC(=O)c1cccs1`, the figure is 5.17 µM [falling, partial curve, poor fit]; as for `O=C(Nc1ccccc1-c1nc2ccccc2[nH]c1=O)c1cccs1`, 0.58 µM [falling, full curve]. For `CCOC(=O)C1=NNC(C(=O)c2ccc(Cl)cc2)C1c1ccccc1` (stereo not given), the AC50 is 0.651 µM [rising, single point] under setting [2] and 29.1 µM [falling, single point] under setting [1]. Take `COc1ccccc1C(CNC(=O)COc1ccccc1C)N1CCCC1` (stereo not given): the cell number change is 1.75%. In the case of `CCn1ncc(/C=C2/SC(=S)NC2=O)c1C`, the cell number change is -1.52%. For the same compound, the AC50 under setting [1] was 4.11 µM [rising, full curve]. Take `CCN1CCN(C(=O)Cn2cnc3sc(C)c(S(=O)(=O)N4CCN(c5ncccn5)CC4)c3c2=O)CC1`: the cell number change came to 21.9%. The AC50 under setting [1] was 0.00461 µM [falling, full curve, poor fit]. For the compound `Cc1ccn2c(NC(C)(C)C)c(-c3cccs3)nc2c1`, the cell number change is -0.621%. For `Cc1nn(-c2ccccc2)cc1/C=N/O`, the cell number change was 62.1%. The AC50 under setting [2] is 5.8 µM [rising, full curve, poor fit]. Also, the AC50 under setting [1] was 7.31 µM [rising, partial curve].

Take `Cc1cc[n+](C2=C([O-])c3ccccc3C(=O)/C2=N\S(=O)(=O)c2cccs2)cc1C`: the AC50 under setting [1] was 6.51 µM [falling, partial curve]. For `CN(C)c1ccc(NC2=C(Cl)C(=O)c3ccccc3C2=O)cc1`, the cell number change is -30.1%. Also, the AC50 under setting [2] is 32.6 µM [falling, single point]. The AC50 under setting [1] was 0.206 µM [falling, full curve]. On to `COc1ccc(OC)c(NC(=O)CN(C)S(=O)(=O)c2ccc(Cl)cc2)c1`, for which the cell number change worked out at 127%. For the same compound, the AC50 under setting [2] is 29.1 µM [rising, single point]. Further, the AC50 under setting [1] was 29.1 µM [rising, single point]. As to `CCOC(=O)c1sc(NC(=O)CSc2nnc(-c3ccco3)o2)c(C(=O)OCC)c1C`, the cell number change was -14.2%.

For the compound `C=CCn1c(=O)c(C(=O)OCC)c(O)c2ccccc21`, the cell number change was 32%. Further, the AC50 under setting [2] was 23.1 µM [rising, single point]. For the same compound, the AC50 under setting [1] is 23.1 µM [rising, single point]. As for `COC(CNC(=O)CNC(=S)N(CCCN1CCOCC1)Cc1cccs1)OC`, the cell number change was 15%. In addition, under setting [1], the AC50 was 0.13 µM [falling, full curve, poor fit]. For the compound `COc1cccc(-c2nc(NC3CCCC3)c3ccccc3n2)c1O`, the cell number change is -33.6%. Under setting [2], the AC50 is 16.4 µM [falling, single point]. The AC50 under setting [1] was 18.4 µM [falling, single point]. In the case of `O=C(CCn1cnc2ccccc2c1=O)Nc1cccc(Cl)c1`, the cell number change is -16.1%. Further, under setting [2], the AC50 was 0.461 µM [falling, full curve, poor fit]. Besides, under setting [1], the AC50 was 0.651 µM [falling, full curve, poor fit]. Take `O=C(Cn1cc(C(=O)c2ccco2)c2ccccc21)NC1CCCC1`: the cell number change was -30.5%. Moreover, the AC50 under setting [2] was 14.6 µM [falling, partial curve, poor fit]. The AC50 under setting [1] was 7.31 µM [falling, partial curve].

As to `O=C(CCC(=O)c1cccs1)OCC(=O)N1CCN(S(=O)(=O)c2ccccc2)CC1`, the cell number change was 35.4%. Moreover, the AC50 under setting [2] was 0.651 µM [falling, single point]. Turning to `Cc1ccc(CNC(=O)CN2C(=O)CSc3ccc(S(=O)(=O)N4CCC(C)CC4)cc32)cc1`, the cell number change turned out to be 0.989%. `CS(=O)(=O)c1ccc(Cl)c(NC(=O)COC(=O)CCN=C2NS(=O)(=O)c3ccccc32)c1`: the cell number change is -49.9%. Also, the AC50 under setting [2] was 5.17 µM [falling, single point]. Besides, under setting [1], the AC50 was 0.0651 µM [falling, full curve, poor fit]. On to `COC(=O)N/N=C/c1c(C)nn(-c2cccc(Cl)c2)c1Cl`, for which the cell number change was found to be 2.06%. In addition, the AC50 under setting [1] was 0.731 µM [rising, single point]. As for `O=C(COc1cccc2ccccc12)NNC(=O)CSCCO`, the cell number change is -1.72%. Consider `COc1cc(SC)ccc1C(=O)Nc1cc(C)c(OCC(=O)N2CCOCC2)c(C)c1`, for which the cell number change is -31.8%. The AC50 under setting [2] is 20.6 µM [falling, single point]. Also, the AC50 under setting [1] was 13 µM [falling, partial curve]. Consider `CCOc1cc(/C=C2\C(=O)N(Cc3ccco3)C(C)=C2C(=O)OC)ccc1O`, for which the cell number change was -22.6%. Besides, the AC50 under setting [1] was 20.6 µM [falling, single point].

In the case of `CC(=O)c1ccc(OC(=O)C2CSC3(C)CCC(=O)N23)cc1` (stereo not given), the cell number change worked out at 1.59%. For the same compound, under setting [2], the AC50 was 3.26 µM [falling, single point]. Besides, under setting [1], the AC50 was 6.51 µM [falling, single point].

For the compound `O=C(CCC(=O)Nc1ccccc1Cl)NNC(=O)c1ccccc1[N+](=O)[O-]`, the cell number change is -2.32%. Still for that read-out and setting: the figure for `COc1ccccc1C(=O)Nc1cccc(NC(=O)c2ccccc2C)c1` is 15.4%.

Take `CCN(CC(=O)NC(C)(C)C)Cc1nc2c(Br)cc(Br)cc2c(=O)[nH]1`: the cell number change was -2.11%. Under setting [2], the AC50 was 0.731 µM [falling, full curve]. For the same compound, the AC50 under setting [1] is 0.651 µM [falling, full curve]. In the case of `CCOc1cc(/C=C2\C(=O)N(Cc3ccc(C)cc3)C(C)=C2C(=O)OC)ccc1O`, the cell number change was -22.1%. Under setting [1], the AC50 was 32.6 µM [falling, single point]. As for `CC1CC(=O)N(CC(=O)Nc2cccc(Cl)c2)c2ccccc2S1(=O)=O` (stereo not given), the cell number change is -13%. Moreover, the AC50 under setting [1] is 29.1 µM [rising, single point]. Regarding `Cc1ccc(C(=O)N/C(=C/c2ccco2)C(=O)N2CCOCC2)cc1`, the cell number change was 0.952%. Also, the AC50 under setting [1] is 6.51 µM [rising, single point]. For the compound `CC(NC(=O)Cc1ccsc1)c1ccc(F)cc1` (stereo not given), the cell number change is 23.4%. On to `Cc1ccc(-c2nnc(-c3ccccc3)o2)cc1`, for which the cell number change was -20%. `COc1ccc2cc3c(N)nn(C(=O)c4ccc(OC)c(OC)c4)c3nc2c1`: the cell number change is -9.3%. The AC50 under setting [1] is 0.259 µM [rising, partial curve, poor fit]. For `COC(=O)c1sc(NC(=O)COc2ccccc2OC)nc1C`, the cell number change was 49.3%. In addition, the AC50 under setting [2] is 29.1 µM [rising, single point]. Besides, the AC50 under setting [1] is 7.31 µM [rising, partial curve]. In the case of `COC(CNS(=O)(=O)c1cccc2nonc12)OC`, the cell number change was 10.3%. The AC50 under setting [2] is 4.11 µM [falling, single point]. The AC50 under setting [1] is 6.51 µM [falling, single point].

Take `COC(=O)c1ccc(C(=O)OC)c(NC(=S)N2CCN(c3ccc(F)cc3)CC2)c1`: the cell number change is -16.2%. Also, under setting [1], the AC50 is 0.231 µM [rising, full curve, poor fit]. Take `Cc1ccc(NC(=O)COC(=O)Cc2csc(-c3cccc(F)c3)n2)cc1C`: the cell number change was determined as 27.6%. As to `COc1ccc(Cc2c(O)nc(SCC(=O)NC34CC5CC(CC(C5)C3)C4)[nH]c2=O)cc1`, the cell number change was -42.2% and 0.654%. Moreover, the half-maximal activity concentration (AC50) under setting [2] was 1.64 µM [falling, partial curve]. For the same compound, under setting [1], the AC50 is 731 nM [falling, full curve] and 4.61 µM [falling, single point].

As to `N#Cc1ccc(CSc2nnc(NC(=O)c3ccc(=O)[nH]c3)s2)cc1`, the cell number change is 0.624%. The AC50 under setting [1] was 3.26 µM [rising, partial curve, poor fit]. For `O=C1OC(Nc2cc(Br)cc3cccnc23)c2ccccc21` (stereo not given), the cell number change is -24.6%. For the same compound, under setting [1], the AC50 was 3.66 µM [falling, single point].

Regarding `N#C/C(=C1\CCCN1)c1nc2ccccc2c(=O)[nH]1`, the cell number change was -2.05%. Further, the AC50 under setting [1] is 0.82 µM [rising, full curve].

`CCOC(=O)C(NC(C)=O)C(=O)Nc1ccc(C)cc1C` (stereo not given): the cell number change was -30%. Under setting [1], the AC50 was 36.6 µM [falling, partial curve, poor fit].

Regarding `Cc1ccc([C@@H]2[C@@H]3C(=O)N(c4ccccc4)C(=O)[C@@H]3[C@]3(C)C(=O)N(Cc4ccc(-c5ccccc5)cc4)CC(=O)N23)o1`, the cell number change was 17.4%. Moreover, the AC50 under setting [1] is 29.1 µM [falling, single point]. Turning to `CN(CC(=O)Nc1ccccc1)CC(=O)Nc1ccccc1Cl`, the cell number change is -15.3%.

For the compound `COc1cccc(-c2nn(C)c3sc(C(=O)N4CCN(c5ccccn5)CC4)cc23)c1`, the cell number change was -29.5%. Further, the AC50 under setting [1] is 2.06 µM [rising, partial curve]. On to `CCCc1cc(=O)oc2cc(C)cc(OC(C)C(=O)NCCCn3ccnc3)c12` (stereo not given), for which the cell number change was determined as 16.9%. Further, the AC50 under setting [1] was 16.4 µM [rising, partial curve]. For the compound `O=C(Nc1nncs1)C1c2ccccc2Oc2ccccc21`, the cell number change is -12.9%. Besides, under setting [1], the AC50 was 20.6 µM [falling, partial curve]. As to `COCCNC(=O)C(c1ccncc1)N(Cc1ccccc1)C(=O)Cn1nnc2ccccc21` (stereo not given), the cell number change worked out at 42.9%.

As to `CC(=O)c1cccc(NS(=O)(=O)c2ccc(N/C=C\C(=O)c3ccc(F)cc3)cc2)c1`, the cell number change is -36.6%. For the same compound, under setting [2], the AC50 was 29.1 µM [falling, single point]. `COCCCNC(=O)Cc1ccc(S(=O)(=O)N2CCOCC2)s1`: the cell number change is -17.3%. In addition, the AC50 under setting [1] is 0.411 µM [falling, full curve]. In the case of `O=C(O)CCC(=O)NCC1OCCc2ccccc21` (stereo not given), the cell number change worked out at 43.1%. Also, the AC50 under setting [2] was 29.1 µM [rising, single point].

As to `OCC[C@@H]1C[C@H](O)[C@@H](O)[C@@]2(Cc3ccccc3CCO2)O1`, the cell number change came to 23.1%. With `Cc1ccc2c(c1)N(CCCC(=O)Nc1cccc(C(F)(F)F)c1)C(=O)CO2`, the cell number change was 13.7%. Under setting [2], the AC50 is 6.51 µM [rising, single point].

With `Cc1ccnc(NC(=S)NC(=O)/C=C/c2ccccc2)c1`, the cell number change is -16.5%. Consider `COC(=O)c1ccc(N2CCN(C)CC2)c(NC(=O)COc2cccc(C)c2)c1`, for which the cell number change worked out at 8.7%. Also, the AC50 under setting [1] was 29.1 µM [falling, single point]. Turning to `CCN(Cc1cccs1)C(=O)CN1CCN(S(=O)(=O)c2ccc3c(c2)OCCCO3)CC1`, the cell number change is 157%. Besides, the AC50 under setting [2] is 18.4 µM [rising, partial curve]. Moreover, under setting [1], the AC50 was 29.1 µM [rising, single point].
